Assay results taken from paper PMC5648754, “CryoEM structure of Saccharomyces cerevisiae U1 snRNP offers insight into alternative splicing” (Nature Communications, 2017).
No constants are given. Whether binding was seen depends on the method and setting. Some entries that bind do so weakly or less than the wild type. Tags and fused reporters may be left off the sequences shown. Values belong to the binder of their own block, whether it stands above or below them.

Sequences of proteins named here, by UniProt entry; tags and fusion partners are left off. A change or cut given only in a name is not applied to a line headed by its entry. Residues count along the entry.
UniProt P09234, residues 1-61: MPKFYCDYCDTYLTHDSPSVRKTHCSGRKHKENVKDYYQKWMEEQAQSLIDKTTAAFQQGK

Tests used:
[1] = target: T1, yeast Prp40 with 2x ProtA tag, co-expressed from plasmid (S. cerevisiae) (UniProt P33203); test: co-purification of co-expressed proteins; Prp40 + Snu71 or Prp40 + Snu71 + Luc7 co-expressed in yeast BCY123; purified by the 2x ProtA tag on Prp40 on IgG Sepharose, released by TEV, Superose 6 gel filtration
T1 sequence: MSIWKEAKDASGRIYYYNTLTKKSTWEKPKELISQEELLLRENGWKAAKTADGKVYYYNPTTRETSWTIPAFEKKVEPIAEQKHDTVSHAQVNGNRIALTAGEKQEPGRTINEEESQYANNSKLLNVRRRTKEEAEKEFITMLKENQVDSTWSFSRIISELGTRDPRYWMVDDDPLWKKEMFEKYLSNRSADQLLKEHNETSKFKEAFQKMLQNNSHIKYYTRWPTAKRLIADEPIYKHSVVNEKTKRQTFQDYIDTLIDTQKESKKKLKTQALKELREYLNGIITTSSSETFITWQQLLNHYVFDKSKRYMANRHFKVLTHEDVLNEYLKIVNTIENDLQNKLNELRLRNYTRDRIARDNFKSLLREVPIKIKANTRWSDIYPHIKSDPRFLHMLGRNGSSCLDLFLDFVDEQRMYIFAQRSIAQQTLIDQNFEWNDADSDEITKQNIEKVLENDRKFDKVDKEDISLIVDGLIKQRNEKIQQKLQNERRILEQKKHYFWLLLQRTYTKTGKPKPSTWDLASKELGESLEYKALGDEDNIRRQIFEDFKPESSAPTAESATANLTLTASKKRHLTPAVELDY

[2] = target: human U1C-NTD (residues 1-61), His-tagged (human) (UniProt P09234); test: pull-down; His-tagged human U1C FL or NTD on nickel resin (5 ul) incubated with 1.5 ug purified Flag-PrpF39; 50 mM Hepes pH 6.9, 50 mM NaCl, 4 °C, 2 h; anti-Flag western blot; both purified
[3] = target: T2, yeast Snu71 (S. cerevisiae), P53207; test: cross-linking; purified yeast U1 snRNP cross-linked with 100 uM BS3, 30 min, room temperature; trypsin digest, mass spectrometry; both purified; conditions: remark: other sources report otherwise
T2 chain: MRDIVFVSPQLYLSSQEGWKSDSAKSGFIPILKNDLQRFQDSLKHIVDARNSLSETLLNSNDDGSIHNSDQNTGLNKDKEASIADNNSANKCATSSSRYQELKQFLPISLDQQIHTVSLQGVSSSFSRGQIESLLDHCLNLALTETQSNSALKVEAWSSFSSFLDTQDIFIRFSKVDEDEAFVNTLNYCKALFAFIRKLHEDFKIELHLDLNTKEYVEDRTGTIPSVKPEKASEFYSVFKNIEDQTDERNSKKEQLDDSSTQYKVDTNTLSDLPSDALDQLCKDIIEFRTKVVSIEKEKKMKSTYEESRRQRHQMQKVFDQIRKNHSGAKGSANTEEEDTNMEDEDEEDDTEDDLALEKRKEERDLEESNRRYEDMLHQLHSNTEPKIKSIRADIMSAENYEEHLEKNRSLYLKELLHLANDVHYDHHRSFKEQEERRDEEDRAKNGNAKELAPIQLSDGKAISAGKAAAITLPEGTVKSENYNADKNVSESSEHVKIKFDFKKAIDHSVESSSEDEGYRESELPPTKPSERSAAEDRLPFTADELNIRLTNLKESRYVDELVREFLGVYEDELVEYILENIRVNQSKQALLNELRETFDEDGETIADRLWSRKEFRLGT

B2: human PrpF39, Flag-tagged (second copy HA-tagged in the co-IP) (natural protein, UniProt Q86UA1 1-669, looked up)
chain: MQNSHMDEYRNSSNGSTGNSSEVVVEHPTDFSTEIMNVTEMEQSPDDSPNVNASTEETEMASAVDLPVTLTETEANFPPEYEKFWKTVENNPQDFTGWVYLLQYVEQENHLMAARKAFDRFFIHYPYCYGYWKKYADLEKRHDNIKPSDEVYRRGLQAIPLSVDLWIHYINFLKETLDPGDPETNNTIRGTFEHAVLAAGTDFRSDRLWEMYINWENEQGNLREVTAIYDRILGIPTQLYSHHFQRFKEHVQNNLPRDLLTGEQFIQLRRELASVNGHSGDDGPPGDDLPSGIEDITDPAKLITEIENMRHRIIEIHQEMFNYNEHEVSKRWTFEEGIKRPYFHVKPLEKAQLKNWKEYLEFEIENGTHERVVVLFERCVISCALYEEFWIKYAKYMENHSIEGVRHVFSRACTIHLPKKPMVHMLWAAFEEQQGNINEARNILKTFEECVLGLAMVRLRRVSLERRHGNLEEAEHLLQDAIKNAKSNNESSFYAVKLARHLFKIQKNLPKSRKVLLEAIERDKENTKLYLNLLEMEYSGDLKQNEENILNCFDKAVHGSLPIKMRITFSQRKVEFLEDFGSDVNKLLNAYDEHQTLLKEQDSLKRKAENGSEEPEEKKAHTEDTTSSSTQMIDGDLQANQAVYNYSAWYQYNYQNPWNYGQYYPPPPT
notes: human PrpF39; In the co-IP two differently tagged copies (Flag-PrpF39 and HA-PrpF39) were co-transfected; The purified protein carries the Flag tag; also called Flag-PrpF39; HA-PrpF39; source: HEK293FT, transfected (pEF-Bos-Flag-PrpF39 and/or pEF-Bos-HA-PrpF39), in lysate; also purified (anti-Flag M2 agarose, 3x Flag peptide elution, Superose 6 gel filtration)
binding [2]: no binding (tested: 1.5 μg purified Flag-PrpF39)

B4: yeast Luc7, co-expressed from plasmid (protein, UniProt Q07508 1-261)
chain: MSTMSTPAAEQRKLVEQLMGRDFSFRHNRYSHQKRDLGLHDPKICKSYLVGECPYDLFQGTKQSLGKCPQMHLTKHKIQYEREVKQGKTFPEFEREYLAILSRFVNECNGQISVALQNLKHTAEERMKIQQVTEELDVLDVRIGLMGQEIDSLIRADEVSMGMLQSVKLQELISKRKEVAKRVRNITENVGQSAQQKLQVCEVCGAYLSRLDTDRRLADHFLGKIHLGYVKMREDYDRLMKNNRTTNASKTATTLPGRRFV
binding [1]: binds

Results, then the binder that gave them:

binding [1]: binds
B1: yeast Snu71, co-expressed from plasmid (protein, UniProt P53207 1-620)
chain: T2 chain

binding [3]: binds
B3: yeast Luc7, Q07508 1-261 (protein)
chain: B4 chain
